PubChem BioAssay AID1259405, NCATS | 2018
Shown is a random part of about 50,000 reagents. In the full data, about 4,000 (8%) are marked active. 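Mouse siRNA library applied to hamster cells; one well for each siRNA.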 A number with no mark means an inactive call. The numbers tell different reagents against one gene apart.

- Screen: 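Knock-downs that lift recombinant protein yield in hamster ovary cells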 (primary screen)
- System: Chinese hamster CHO-K1 ovary cells with stable secreted eGFP expression
- Knock-down reagent: single siRNA against mouse genes, 0.8 pmol siRNA per well (2 µl of 400 nM stock)
- Duration: 3 days
- Measured: 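Percent of the per-plate non-targeting control median for intracellular GFP per well by laser scanning cytometry and for cell viability by ATP luminescence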
- Direction: GFP, % of control: higher = more GFP per well, higher productivity; viability (ATP), % of control: higher = more viable cells (more ATP)
- Hit rule: 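a knock-down is called active if GFP reaches 120% or more of non-targeting control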

| gene | siRNA no. | GFP, % of control | viability (ATP), % of control |
| --- | --- | --- | --- |
| Or4p22 (GeneID 258820) | 1 | 58.2 | 57.4 |
| Or4p22 (GeneID 258820) | 2 | 73.6 | 83.5 |
| Or4p22 (GeneID 258820) | 3 | 110 | 88.1 |
| Edf1 (GeneID 59022) | 1 | 84.8 | 85.2 |
| Edf1 (GeneID 59022) | 2 | 164 (active) | 144 |
| Edf1 (GeneID 59022) | 3 | 111 | 97.9 |
| Edf1 (GeneID 59022) | 4 | 104 | 89.3 |
| Edf1 (GeneID 59022) | 5 | 91.4 | 105 |
| Slc22a17 (GeneID 59049) | 1 | 61.9 | 63.5 |
| Slc22a17 (GeneID 59049) | 2 | 43.3 | 57.5 |
| Slc22a17 (GeneID 59049) | 3 | 67.8 | 65.7 |
| Gja4 (GeneID 14612) | 1 | 98.4 | 77.2 |
| Gja4 (GeneID 14612) | 2 | 123 (active) | 87 |
| Gja4 (GeneID 14612) | 3 | 98.7 | 108 |
| Or1p1c (GeneID 258181) | 1 | 54.6 | 36.1 |
| Or1p1c (GeneID 258181) | 2 | 36.5 | 53.8 |
| Or1p1c (GeneID 258181) | 3 | 50.8 | 113 |
| Zfand3 (GeneID 21769) | 1 | 80.7 | 71.2 |
| Zfand3 (GeneID 21769) | 2 | 88.8 | 151 |
| Zfand3 (GeneID 21769) | 3 | 141 (active) | 148 |
| Sin3a (GeneID 20466) | 1 | 86.3 | 74.6 |
| Sin3a (GeneID 20466) | 2 | 70.5 | 83.3 |
| Fgfr1op2 (GeneID 67529) | 1 | 66.5 | 69.7 |
| Fgfr1op2 (GeneID 67529) | 2 | 72.4 | 56 |
| Fgfr1op2 (GeneID 67529) | 3 | 72.9 | 78 |
| Zkscan6 (GeneID 52712) | 1 | 71.2 | 47.5 |
| Zkscan6 (GeneID 52712) | 2 | 69.2 | 64.2 |
| Zkscan6 (GeneID 52712) | 3 | 55.8 | 59.6 |
| Hdac8 (GeneID 70315) | 1 | 34.9 | 45 |
| Hdac8 (GeneID 70315) | 2 | 98.8 | 121 |
| Ttll3 (GeneID 101100) | 1 | 74.1 | 40.6 |
| Ttll3 (GeneID 101100) | 2 | 43.9 | 52.5 |
| Ttll3 (GeneID 101100) | 3 | 137 (active) | 63.8 |
| Zbtb18 (GeneID 30928) | 1 | 92.6 | 45.2 |
| Zbtb18 (GeneID 30928) | 2 | 105 | 77.2 |
| Zbtb18 (GeneID 30928) | 3 | 48.6 | 84.7 |
| Or2ah1 (GeneID 258579) | 1 | 90.3 | 72.1 |
| Or2ah1 (GeneID 258579) | 2 | 74.8 | 54.3 |
| Or2ah1 (GeneID 258579) | 3 | 99.3 | 85.8 |
| Rpusd1 (GeneID 106707) | 1 | 78.4 | 54.5 |
| Rpusd1 (GeneID 106707) | 2 | 57.6 | 69 |
| Rpusd1 (GeneID 106707) | 3 | 85.7 | 86.3 |
| Dync1h1 (GeneID 13424) | 1 | 80.8 | 77 |
| Dync1h1 (GeneID 13424) | 2 | 70.1 | 71.3 |
| Qrfprl (GeneID 243407) | 1 | 81.1 | 73.2 |
| Qrfprl (GeneID 243407) | 2 | 68.2 | 88.9 |
| Qrfprl (GeneID 243407) | 3 | 61.7 | 46 |
| Pih1d1 (GeneID 68845) | 1 | 123 (active) | 113 |
| Pih1d1 (GeneID 68845) | 2 | 107 | 55.9 |
| Pih1d1 (GeneID 68845) | 3 | 48.6 | 63.2 |
| Or56b1b (GeneID 258163) | 1 | 37.3 | 41 |
| Or56b1b (GeneID 258163) | 2 | 67.9 | 91.9 |
| Or56b1b (GeneID 258163) | 3 | 60.8 | 64.4 |
| 9130008F23Rik (GeneID 71583) | 1 | 83.9 | 56 |
| 9130008F23Rik (GeneID 71583) | 2 | 76.7 | 77.2 |
| 9130008F23Rik (GeneID 71583) | 3 | 71.2 | 67.5 |
| Tsnax (GeneID 53424) | 1 | 79.9 | 69 |
| Tsnax (GeneID 53424) | 2 | 86.4 | 101 |

8 entries already listed, ordered by “GFP, % of control”, ascending:
| gene | siRNA no. | GFP, % of control | viability (ATP), % of control |
| --- | --- | --- | --- |
| Ttll3 (GeneID 101100) | 2 | 43.9 | 52.5 |
| Zbtb18 (GeneID 30928) | 3 | 48.6 | 84.7 |
| Ttll3 (GeneID 101100) | 1 | 74.1 | 40.6 |
| Or2ah1 (GeneID 258579) | 1 | 90.3 | 72.1 |
| Zbtb18 (GeneID 30928) | 1 | 92.6 | 45.2 |
| Hdac8 (GeneID 70315) | 2 | 98.8 | 121 |
| Zbtb18 (GeneID 30928) | 2 | 105 | 77.2 |
| Ttll3 (GeneID 101100) | 3 | 137 (active) | 63.8 |
